{"source": "patent WO2020239014A1", "about": "(dated 2020)", "key": {"[1]": {"target": "T1, CGRPα (4013281-1000, Bachem) (human, UniProt P06881 83-119, not fully specified)", "T1 peptide (looked up)": "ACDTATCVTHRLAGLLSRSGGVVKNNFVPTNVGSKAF", "assay": "BLI (Octet RED 96), α-CGRP on streptavidin biosensors"}, "[2]": {"target": "T1, CGRPα (4013281-1000, Bachem)", "assay": "ELISA, coated CGRPα titrated, antibody 1 μg/mL"}}, "note": "These are yes or no findings as the source states them, for the method shown. Some binding calls cover weakened binding; strength is not graded here.", "data": [{"binder": "CGRPM5-BA51.23-IgG2 (antibody, V domains shown, Humanized BA51, IgG2; also called CGRP-BA51.23; CGRP-BA51.23-IgG2) VH: QVQLVQSGAEVKKPGASVKVSCKASGYTFTRYTMHWIRQAPGQGLEWMGYIYPSSGYTIYNQKFQGRVTMTRDTSTSTVYMELSSLRSEDTAVYYCATEGHYAGNGNYEGYWGQGTTVTVSS VL: DIVMTQSPSSLSASVGDRVTITCRASSSISSNYLHWYQQKPGKAPKLLIYRTSNLASGVPSRFSGSGSGTDFTLTISSLQPEDFATYYCQQGSSIPFTFGQGTKLEIK", "values": [{"measurement": "binding", "setting": "[1]", "value": "binds"}, {"measurement": "binding", "setting": "[2]", "value": "binds"}]}]}
